Reference: PubChem BioAssay AID1259308 (NCATS, 2017)

Assay: 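Knock-downs that increase output of a recombinant reporter protein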 (primary screen)
Cell system: human HEK293 embryonic kidney cells stably expressing firefly luciferase (HEK-CMV-Luc2-Hygro)
Reagents: single siRNA against human genes, 0.8 pmol siRNA per well
Time to read-out: 72 h
Read-out: 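Reporter luminescence and viable-cell signal on separate replicate plates, given as percent of non-targeting control and median/MAD z-scores, plus per-cell luciferase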
Scale: total luciferase, z-score and total luciferase, % of control: higher = more reporter protein produced
Rule for the call: 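An siRNA counts as active if its total luciferase robust z-score exceeds 3; genes with two or more such siRNAs out of three were retested with fresh siRNAs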
Calls: active = raised luciferase; inactive = no rise
This is one part, drawn at random, of about 59,000 reagents tested. Of all reagents, about 1,510 (2.6%) are marked active. 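Calls use total luciferase alone and ignore viability, so some active siRNAs may act by altering cell number.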 Entries without a mark were called inactive. Reagents against one gene are numbered here. Further read-outs or replicates are left out here.

no.	Gene	reagent	total luciferase, z-score	total luciferase, % of control
1	H2BC12 (H2B clustered histone 12)	1	-0.57	70.5
2	H2BC12 (H2B clustered histone 12)	2	0.00397	82
3	H2BC12 (H2B clustered histone 12)	3	0.111	84.1
4	ZNF395 (zinc finger protein 395)	1	1.03	102
5	ZNF395 (zinc finger protein 395)	2	-1.27	56.6
6	ZNF395 (zinc finger protein 395)	3	-2.08	40.5
7	DNAH12 (dynein axonemal heavy chain 12)	1	0.686	95.5
8	DNAH12 (dynein axonemal heavy chain 12)	2	0.332	88.5
9	DNAH12 (dynein axonemal heavy chain 12)	3	-1.59	50.2
10	DNAH12 (dynein axonemal heavy chain 12)	4	-0.139	79.1
11	DNAH12 (dynein axonemal heavy chain 12)	5	-0.825	65.5
12	DNAH12 (dynein axonemal heavy chain 12)	6	2.06	123
13	MYO9B (myosin IXB)	1	0.887	99.5
14	MYO9B (myosin IXB)	2	0.343	88.7
15	MYO9B (myosin IXB)	3	0.27	87.3
16	ADAM8 (ADAM metallopeptidase domain 8)	1	0.478	91.4
17	ADAM8 (ADAM metallopeptidase domain 8)	2	0.0625	83.1
18	ADAM8 (ADAM metallopeptidase domain 8)	3	-0.0875	80.1
19	RNF144B (ring finger protein 144B)	1	-0.586	70.2
20	RNF144B (ring finger protein 144B)	2	1.59	113
21	RNF144B (ring finger protein 144B)	3	0.707	96
22	MAN2C1 (mannosidase alpha class 2C member 1)	1	-0.264	76.6
23	MAN2C1 (mannosidase alpha class 2C member 1)	2	0.849	98.8
24	MAN2C1 (mannosidase alpha class 2C member 1)	3	2.44	130

3 entries from above, reformatted.
Gene | reagent | total luciferase, z-score | total luciferase, % of control
H2BC12 (H2B clustered histone 12) | 3 | 0.111 | 84.1
ZNF395 (zinc finger protein 395) | 1 | 1.03 | 102
ZNF395 (zinc finger protein 395) | 2 | -1.27 | 56.6
